Results as given in publication doi:10.1101/2025.07.28.666126.
No constants are given. Whether binding was seen depends on the method and setting. In cells and extracts the contact can be indirect. Some binding calls cover weakened binding; strength is not graded here.

The chains behind the UniProt entries cited, without tags or fusion partners.
UniProt Q9C0C7: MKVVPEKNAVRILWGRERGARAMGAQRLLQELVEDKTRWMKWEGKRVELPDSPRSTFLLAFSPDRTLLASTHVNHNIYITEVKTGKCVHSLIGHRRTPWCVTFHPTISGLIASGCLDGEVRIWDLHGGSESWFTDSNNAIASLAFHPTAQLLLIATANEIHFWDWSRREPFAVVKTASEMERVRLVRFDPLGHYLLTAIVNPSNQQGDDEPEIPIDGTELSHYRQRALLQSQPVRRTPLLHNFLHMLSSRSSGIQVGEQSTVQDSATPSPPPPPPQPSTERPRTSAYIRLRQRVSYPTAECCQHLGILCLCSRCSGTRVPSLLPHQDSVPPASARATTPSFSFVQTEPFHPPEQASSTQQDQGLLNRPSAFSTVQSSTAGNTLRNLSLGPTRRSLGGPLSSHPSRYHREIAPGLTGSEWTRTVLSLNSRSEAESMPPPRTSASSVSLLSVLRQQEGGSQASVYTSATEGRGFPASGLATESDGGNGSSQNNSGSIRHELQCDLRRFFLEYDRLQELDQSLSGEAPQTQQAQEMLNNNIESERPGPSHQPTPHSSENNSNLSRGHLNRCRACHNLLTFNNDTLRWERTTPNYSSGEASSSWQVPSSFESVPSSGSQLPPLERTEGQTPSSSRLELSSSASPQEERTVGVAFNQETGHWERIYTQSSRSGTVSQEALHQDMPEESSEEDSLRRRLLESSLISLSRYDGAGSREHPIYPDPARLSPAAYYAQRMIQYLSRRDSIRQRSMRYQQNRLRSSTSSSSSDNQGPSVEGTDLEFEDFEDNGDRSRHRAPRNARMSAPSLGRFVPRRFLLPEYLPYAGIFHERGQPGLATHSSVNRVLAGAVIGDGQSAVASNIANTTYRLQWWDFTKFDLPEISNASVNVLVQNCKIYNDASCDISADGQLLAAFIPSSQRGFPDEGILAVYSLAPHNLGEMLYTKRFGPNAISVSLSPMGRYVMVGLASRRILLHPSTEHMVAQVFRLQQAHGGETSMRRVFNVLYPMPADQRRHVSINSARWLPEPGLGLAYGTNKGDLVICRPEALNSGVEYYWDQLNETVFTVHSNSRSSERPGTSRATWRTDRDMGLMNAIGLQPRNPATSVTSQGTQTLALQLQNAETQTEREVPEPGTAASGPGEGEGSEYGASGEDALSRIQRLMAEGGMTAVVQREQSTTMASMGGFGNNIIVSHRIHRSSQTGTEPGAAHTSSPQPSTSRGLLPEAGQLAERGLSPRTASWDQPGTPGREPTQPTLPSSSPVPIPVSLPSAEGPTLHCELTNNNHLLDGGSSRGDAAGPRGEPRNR
UniProt P11802: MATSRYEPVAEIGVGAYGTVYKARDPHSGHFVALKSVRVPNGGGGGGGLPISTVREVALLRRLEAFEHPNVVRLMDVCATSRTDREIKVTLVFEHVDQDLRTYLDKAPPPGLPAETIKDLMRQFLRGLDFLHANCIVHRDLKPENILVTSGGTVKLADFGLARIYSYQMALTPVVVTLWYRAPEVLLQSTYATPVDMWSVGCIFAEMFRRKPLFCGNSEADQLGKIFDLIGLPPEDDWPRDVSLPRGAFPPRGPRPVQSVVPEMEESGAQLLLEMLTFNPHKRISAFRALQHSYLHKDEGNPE
UniProt P46527: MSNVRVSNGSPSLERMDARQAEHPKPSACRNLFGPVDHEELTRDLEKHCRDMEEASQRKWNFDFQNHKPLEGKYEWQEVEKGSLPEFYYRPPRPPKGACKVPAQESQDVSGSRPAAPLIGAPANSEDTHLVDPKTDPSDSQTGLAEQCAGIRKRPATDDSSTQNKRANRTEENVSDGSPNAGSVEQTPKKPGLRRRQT
UniProt P38936: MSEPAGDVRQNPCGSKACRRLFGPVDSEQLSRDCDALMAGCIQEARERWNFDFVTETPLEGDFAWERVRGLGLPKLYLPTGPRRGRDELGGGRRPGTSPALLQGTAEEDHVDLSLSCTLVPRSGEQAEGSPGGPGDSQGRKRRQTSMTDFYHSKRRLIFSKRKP

What was measured:
[1] = molecular target: Activating Molecule in Beclin 1-Regulated Autophagy (AMBRA1) (human (endogenous in HeLa)) (UniProt Q9C0C7); assay: co-IP
[2] = molecular target: CDK4 (human (endogenous in HeLa, DAOY)) (UniProt P11802); assay: proximity ligation

binding [1]	binding [2]	Substance
binds		p27^Kip1 (from UniProt P46527 1-198) (other; other documents disagree on this pair)
binds		p21^Waf1/Cip1 (from UniProt P38936 1-164)
	binds	p27^Kip1 (from UniProt P46527 1-198)
